# In PubChem BioAssay AID1671190 (National Center for Advancing Translational Sciences (NCATS), 2021):
# Amino acid sequences for entries named in this document (tags omitted). A change or cut given only in a name is not applied to a line headed by its entry.
# UniProt P18054: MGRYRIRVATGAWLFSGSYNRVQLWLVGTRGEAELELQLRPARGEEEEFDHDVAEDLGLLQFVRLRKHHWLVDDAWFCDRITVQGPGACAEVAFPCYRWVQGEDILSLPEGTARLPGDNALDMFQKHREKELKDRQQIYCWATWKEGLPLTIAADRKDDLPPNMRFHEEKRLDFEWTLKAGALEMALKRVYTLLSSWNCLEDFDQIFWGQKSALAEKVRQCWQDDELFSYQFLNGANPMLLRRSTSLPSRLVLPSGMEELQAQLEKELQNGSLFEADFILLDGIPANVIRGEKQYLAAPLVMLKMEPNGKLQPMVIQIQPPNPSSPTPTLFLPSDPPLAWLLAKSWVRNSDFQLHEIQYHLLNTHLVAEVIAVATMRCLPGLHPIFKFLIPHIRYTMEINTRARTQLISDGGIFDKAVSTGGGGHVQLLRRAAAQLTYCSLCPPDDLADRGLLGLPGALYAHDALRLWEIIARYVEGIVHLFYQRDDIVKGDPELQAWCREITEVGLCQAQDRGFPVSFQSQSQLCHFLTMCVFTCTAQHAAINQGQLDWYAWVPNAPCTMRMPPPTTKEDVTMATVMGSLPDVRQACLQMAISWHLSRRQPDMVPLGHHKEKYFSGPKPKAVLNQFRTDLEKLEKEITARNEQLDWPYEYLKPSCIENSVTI
# Several values for one entry are separate records, joined by “and”; a condition that tells them apart may be missing. Equal entries are not always repeated. Screen size: about 580,000 compounds; about 6,100 (1.1%) were called active. The inconclusive results got no clear call from the source; some entries with a clear call stand among them for comparison. The call rests on the fitted dose curve; in most records, active means well fitted inhibition curve with a large enough effect; inconclusive means small, poorly fitted or top-dose-only effect, or another doubt; inactive means no such curve, though single readings can be large or run the other way. Where the call is inconclusive, the potency comes from a doubtful curve fit.
# Target: Polyunsaturated fatty acid lipoxygenase ALOX12 (Homo sapiens) (UniProt P18054)
# Experiment: Primary qHTS assay for inhibitors of human arachidonate 12S-lipoxygenase (ALOX12): Round 2
# Details: purified 12hLO, xylenol orange hydroperoxide absorbance; activity change, negative = inhibition: at 108 µM (top of the series) unless noted
# Procedure, shortened: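 Purified human 12hLO at 150 nM in 25 mM Hepes, 0.01% Triton X-100, pH 7.0, preincubated 15 min at room temperature with compound. Reaction started with 40 uM arachidonic acid, 30 min at room temperature. Hydroperoxide measured by Fe-xylenol orange, 573/405 nm absorbance ratio.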
# On the % scale 0 is the no-effect control and ±100 the full control effect; potency means the concentration at half of the fitted maximal effect.
SMILES,Potency,"activity change, negative = inhibition"
COc1ccc(-c2nc(CN3CCN(C(=O)Nc4ccccc4OC)CC3)c(C)o2)cc1,"inconclusive: 56.2 µM [inhibitor, partial curve, poor fit]",
COc1cc(CNC(C)c2ccccc2)cc(Br)c1OCc1ccc(F)cc1 (stereo not given),"inconclusive: 126 µM [inhibitor, single point]",
O=C1OCCC1Sc1nc2cc(Cl)ccc2n1Cc1ccccc1 (stereo not given),"inconclusive: 50.1 µM [inhibitor, partial curve, poor fit]",
O=C(CCc1nc2ccccc2c(=O)[nH]1)Nc1ccccc1N1CCCCC1,"inconclusive: 89.1 µM [inhibitor, single point]",
Cc1cc(C)c(C#N)c(SC2CCCCC2=O)n1 (stereo not given),"inconclusive: 44.7 µM [inhibitor, full curve, poor fit]",
CCCn1nc(C(=O)NCc2cccc(Cl)c2)c2ccccc2c1=O,"inconclusive: 0.447 µM [inhibitor, full curve, poor fit]",
CCc1cccc(NC(=O)Cn2c(=O)n(CC(=O)NCCc3ccccc3)c(=O)c3ccccc32)c1,"inconclusive: 141 µM [inhibitor, partial curve, poor fit]",
Cc1nc2n(c1C(=O)N(C)C)CCN(C(=O)c1cc(=O)n(C)c(=O)n1C)C2,"inconclusive: 10 µM [inhibitor, partial curve]",
CCN(CC)S(=O)(=O)c1ccc(NS(=O)(=O)c2cccc(C(=O)O)c2)cc1,"inconclusive: 0.316 µM [inhibitor, full curve, poor fit]",
Cc1ccc(COc2cccc(C3C4=C(CCCC4=O)OC4=C3C(=O)CCC4)c2)cc1,inactive,
c1ccc(C(CNCc2ccncc2)N2CCCC2)cc1 (stereo not given),inactive,
CCc1cccc(OCCCCN(CC)CC)c1,active: 1.12 µM,
COc1cccc(-c2cc(C(=O)Nc3cccc(O)c3)no2)c1,inactive,
O=C(Cn1c(=O)oc2ccccc21)Nc1ccc(Br)cc1,"inconclusive: 70.8 µM [inhibitor, partial curve, poor fit]",
Cc1cc[n+](C(C)C(=O)c2ccc(-c3ccccc3)cc2)cc1 (stereo not given),inactive,
Cc1ccc(S(=O)(=O)c2nc(-c3ccccc3)oc2SCC(=O)NCC2CCCO2)cc1 (stereo not given),inactive,
Nc1ncc(Br)cc1S(=O)(=O)NCCC(=O)NC1CCCCC1,inactive,
NC(N)=NC(N)=Nc1ccc(Cl)c(Cl)c1,inactive,
C[C@@H](O)[C@H](N)C(=O)O,"inconclusive: 2.21 µM [inhibitor, partial curve, poor fit]",
O=C(NCCc1ccc(Cl)cc1)c1ccc(CS(=O)Cc2ccccc2Cl)o1 (stereo not given),"inconclusive: 100 µM [inhibitor, partial curve, poor fit]",
Cn1ccnc1SCC(=O)c1ccc(Br)cc1,inactive,
Cc1ccc(OCC(=O)O)c(O)c1,"inconclusive: 44.7 µM [inhibitor, partial curve, poor fit]",
COc1ccc(NC(=O)Cn2c(SCc3ccc(F)cc3)nc3cccnc32)cc1OC,inactive,
O=C(CCC(=O)c1cccs1)NNC(=O)c1ccccc1O,"inconclusive: 44.7 µM [inhibitor, partial curve, poor fit]",

# In another format: 18 of the compounds above.
SMILES | Potency | activity change, negative = inhibition
O=C1OCCC1Sc1nc2cc(Cl)ccc2n1Cc1ccccc1 (stereo not given) | inconclusive: 50.1 µM [inhibitor, partial curve, poor fit] | 
O=C(CCc1nc2ccccc2c(=O)[nH]1)Nc1ccccc1N1CCCCC1 | inconclusive: 89.1 µM [inhibitor, single point] | 
Cc1cc(C)c(C#N)c(SC2CCCCC2=O)n1 (stereo not given) | inconclusive: 44.7 µM [inhibitor, full curve, poor fit] | 
CCCn1nc(C(=O)NCc2cccc(Cl)c2)c2ccccc2c1=O | inconclusive: 0.447 µM [inhibitor, full curve, poor fit] | 
CCc1cccc(NC(=O)Cn2c(=O)n(CC(=O)NCCc3ccccc3)c(=O)c3ccccc32)c1 | inconclusive: 141 µM [inhibitor, partial curve, poor fit] | 
Cc1nc2n(c1C(=O)N(C)C)CCN(C(=O)c1cc(=O)n(C)c(=O)n1C)C2 | inconclusive: 10 µM [inhibitor, partial curve] | 
CCN(CC)S(=O)(=O)c1ccc(NS(=O)(=O)c2cccc(C(=O)O)c2)cc1 | inconclusive: 0.316 µM [inhibitor, full curve, poor fit] | 
Cc1ccc(COc2cccc(C3C4=C(CCCC4=O)OC4=C3C(=O)CCC4)c2)cc1 | inactive | 
c1ccc(C(CNCc2ccncc2)N2CCCC2)cc1 (stereo not given) | inactive | 
CCc1cccc(OCCCCN(CC)CC)c1 | active: 1.12 µM | 
COc1cccc(-c2cc(C(=O)Nc3cccc(O)c3)no2)c1 | inactive | 
O=C(Cn1c(=O)oc2ccccc21)Nc1ccc(Br)cc1 | inconclusive: 70.8 µM [inhibitor, partial curve, poor fit] | 
Cc1cc[n+](C(C)C(=O)c2ccc(-c3ccccc3)cc2)cc1 (stereo not given) | inactive | 
Cc1ccc(S(=O)(=O)c2nc(-c3ccccc3)oc2SCC(=O)NCC2CCCO2)cc1 (stereo not given) | inactive | 
Nc1ncc(Br)cc1S(=O)(=O)NCCC(=O)NC1CCCCC1 | inactive | 
NC(N)=NC(N)=Nc1ccc(Cl)c(Cl)c1 | inactive | 
C[C@@H](O)[C@H](N)C(=O)O | inconclusive: 2.21 µM [inhibitor, partial curve, poor fit] | 
O=C(NCCc1ccc(Cl)cc1)c1ccc(CS(=O)Cc2ccccc2Cl)o1 (stereo not given) | inconclusive: 100 µM [inhibitor, partial curve, poor fit] | 

# The list continues:

SMILES,Potency,"activity change, negative = inhibition"
CN1C(=O)/C(=C/c2ccccc2OCc2ccccc2F)NC1=S,"inconclusive: 35.5 µM [inhibitor, single point]",
CC(C)(C)CN1CCN(Cc2nc(-c3ccc(F)cc3)cs2)CC1CCO (stereo not given),inactive,
c1ccc(-c2csc3nnc(SCc4ccc5c(c4)OCO5)n23)cc1,inactive,
CC1=NN(C(=O)c2ccc(C)o2)C(O)(c2ccccc2)C1 (stereo not given),inactive,
Cc1ccc(NC2c3ncccc3C(=O)N2c2ccccc2C)cc1C (stereo not given),active: 10 µM,
COc1cc2c(cc1OC)C(C)N(C(=O)C1COc3ccccc3O1)CC2 (stereo not given),inactive,
C[C@@]12CCC=C[C@H]1[C@H](c1ccc(C(F)(F)F)cc1)N(Cc1ccccc1)C2=O,"inconclusive: 14.1 µM [inhibitor, full curve, poor fit]",
Cc1cccc(C(=O)NC(=S)N2CCc3ccccc3C2)c1,"inconclusive: 39.8 µM [inhibitor, partial curve]",
O=C1C(=O)N(CCCO)C(c2ccccc2)/C1=C(\O)c1ccc(Br)cc1 (stereo not given),"inconclusive: 7.94 µM [inhibitor, full curve, poor fit] and inconclusive: 50.1 µM [inhibitor, partial curve, poor fit]",
Cn1ncc(N2CCCC(CC(=O)Nc3ccccc3F)C2)cc1=O (stereo not given),inactive,
O=C(O)CCNc1c(-c2ccc(F)cc2)nc2cnccn12,active: 35.5 µM,
Cc1cc(NC(=O)/C=C/c2ccco2)ccc1NC(=O)c1ccccc1,inactive,
CC1CCN(c2ccc(CNC(=O)c3ccc4c(c3)C(O)CCCCCN4C)cc2)CC1 (stereo not given),"inconclusive: 4.47 µM [inhibitor, full curve, poor fit]",
O=Cc1ccccc1-c1cncc(C(=O)O)c1,"inconclusive: 39.8 µM [inhibitor, partial curve, poor fit]",
Cc1ccc([N+](=O)[O-])cc1NS(=O)(=O)c1cccs1,inactive,
N#Cc1cn(C2CC2)c(=O)n(Cc2coc(-c3ccc(Cl)cc3)n2)c1=O,"inconclusive: 100 µM [inhibitor, single point]",
CCn1c(=O)cc(SCC(=O)NCCC2=CCCCC2)c2ccccc21,"inconclusive: 39.8 µM [inhibitor, full curve, poor fit]",
Cn1ccc2cc(-c3csc(N4CCC(C(N)=O)CC4)n3)ccc21,inactive,
Cc1cccc(Cn2nnc(C(=O)Nc3cc(C)ccc3C)c2N)c1,"inconclusive: 56.2 µM [inhibitor, partial curve, poor fit]",
O=C(C1=C(O)C(=O)N(CC2CCCO2)C1c1cccnc1)c1ccco1 (stereo not given),"inconclusive: 0.891 µM [inhibitor, full curve, poor fit]",
CCOC(=O)c1scc(-c2ccccc2)c1S(=O)(=O)Nc1cccc(CC)c1,"inconclusive: 7.08 µM [inhibitor, full curve, poor fit]",
CC(NC(=O)c1ccc2c(c1)N(Cc1ccc(Cl)cc1)C(=O)c1ccccc1S2=O)c1ccccc1 (stereo not given),"inconclusive: 8.91 µM [inhibitor, partial curve, poor fit]",
CCCCc1nc2ccccc2c(NC(=O)CN2CCN(C)CC2)c1CCC,"inconclusive: 0.398 µM [inhibitor, full curve, poor fit]",
Cc1sc(NC(=O)c2ccccc2F)c(CN2CCCCC2C)c1C (stereo not given),"inconclusive: 89.1 µM [inhibitor, partial curve, poor fit]",

SMILES,Potency,"activity change, negative = inhibition"
O=C(O)c1ccc([N+](=O)[O-])c(CS(=O)(=O)c2ccc(Cl)cc2)c1,inactive,
Cc1ccc(C)c(S(=O)(=O)N2CCN(CC(=O)N3CCc4ccccc4C3)CC2)c1,inactive,
Nc1nc2ccc(N3CCOCC3)cc2s1,"inconclusive: 79.4 µM [inhibitor, partial curve, poor fit]",
Cc1ccc(NC(=S)NNC(=S)Nc2ccc(C)cc2)cc1,"inconclusive: 31.6 µM [inhibitor, partial curve, poor fit]",
Nc1c(S(=O)(=O)c2cccc(Cl)c2)c2nc3ccccc3nc2n1CCN1CCOCC1,,inconclusive: -37.7% [inhibitor]
Cc1cc(NC(=O)CC2CCCC2)n(-c2nc3ccccc3[nH]2)n1,inactive,
Cc1cccc(CNc2ccnc(-c3cccnc3)n2)c1,"inconclusive: 44.7 µM [inhibitor, partial curve, poor fit]",
CCOC(=O)c1c(C)oc2nc(C)nc(NCCCN3CCN(c4ccc(F)cc4)CC3)c12,"inconclusive: 126 µM [inhibitor, partial curve, poor fit]",
Cc1cccc(C)c1OCc1cc(C(=O)N(Cc2nccn2C)C(C)C)no1,inactive,
O=C(O)C1C2C=CC3(CN(C4CCCC4)C(=O)C13)O2 (stereo not given),inactive,
CCOc1ccccc1NC(=S)Nc1ncccc1C,active: 11.2 µM,
Fc1ccc(C2C=C(c3ccccc3)NC(=S)N2)cc1 (stereo not given),"inconclusive: 39.8 µM [inhibitor, partial curve, poor fit]",
N#CC1=C2SCN(Cc3ccco3)CN2C(=O)CC1c1ccc(Cl)cc1 (stereo not given),"inconclusive: 3.98 µM [inhibitor, full curve]",
O=C(O)CSc1nc2ccccc2n1Cc1ccccc1,"inconclusive: 28.2 µM [inhibitor, single point]",
COc1cc(C(C)=O)ccc1OCCCN1CCC(Cc2ccccc2)CC1,"inconclusive: 0.398 µM [inhibitor, full curve, poor fit]",
COc1ccc(NC(=S)Nc2ncccc2C)cc1OC,active: 5.01 µM,
O=C(c1nc2c(o1)CCN(Cc1ccccc1F)CC2)N1CCOCC1,"inconclusive: 63.1 µM [inhibitor, full curve]",
CS(=O)(=O)c1ccc(C(=O)OCC(=O)NC2CCS(=O)(=O)C2)cc1[N+](=O)[O-] (stereo not given),inactive,
COc1ccc(CC(=O)N2CCN(c3cccc(Cl)c3)CC2)cc1OC,"inconclusive: 44.7 µM [inhibitor, partial curve, poor fit]",
CCCN1CCCC2(Cc3ccccc3CN(C(=O)Cc3ccccc3)C2)C1 (stereo not given),"inconclusive: 70.8 µM [inhibitor, partial curve, poor fit]",
CS(=O)(=O)c1ccc2nc(NC(=O)CN3CCOCC3)sc2c1,"inconclusive: 31.6 µM [inhibitor, full curve, poor fit]",
CCN1CCN(S(=O)(=O)c2ccc(NC(=O)CCc3ncc(-c4ccccc4F)o3)cc2)CC1,"inconclusive: 28.2 µM [inhibitor, partial curve]",
